For assay [1], the target named is T1, SRO1 WWE--- (amino acids 1-262) (Arabidopsis) (UniProt O82289).
T1 sequence: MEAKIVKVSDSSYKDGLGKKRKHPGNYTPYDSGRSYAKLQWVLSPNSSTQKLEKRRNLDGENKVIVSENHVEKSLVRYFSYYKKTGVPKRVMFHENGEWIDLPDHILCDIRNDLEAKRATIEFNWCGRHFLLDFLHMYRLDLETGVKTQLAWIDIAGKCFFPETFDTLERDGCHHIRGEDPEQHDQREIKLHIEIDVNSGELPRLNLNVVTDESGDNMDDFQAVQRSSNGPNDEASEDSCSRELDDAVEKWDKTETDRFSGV
The assay is described as follows: two-hybrid.

Assay [2] addresses T2, RCD1 WWE--- (amino acids 1-265) (Arabidopsis) (UniProt Q8RY59).
T2 sequence: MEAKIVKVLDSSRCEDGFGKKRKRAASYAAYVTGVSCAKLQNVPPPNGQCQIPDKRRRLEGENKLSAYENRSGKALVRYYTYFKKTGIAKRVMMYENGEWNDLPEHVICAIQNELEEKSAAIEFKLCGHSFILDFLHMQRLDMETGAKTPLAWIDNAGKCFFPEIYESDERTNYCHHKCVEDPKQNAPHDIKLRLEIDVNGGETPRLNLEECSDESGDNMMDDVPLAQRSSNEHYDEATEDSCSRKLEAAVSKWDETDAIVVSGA
As to the kind of experiment: two-hybrid.

Results are given in words; binding and its absence hold for the method and conditions named. Some entries that bind do so weakly or less than the wild type.

B1: RCD1 WWE--- (amino acids 1-265) (domain or fragment, UniProt Q8RY59 1-265)
chain: T2 sequence
With B1, the binding entry in assay [1] is “binds”.

B2: SRO1 WWE--- (amino acids 1-262) (domain or fragment, UniProt O82289 1-262)
chain: T1 sequence
For the molecule B2, the binding entry in assay [2] and in assay [1] was “binds” in each case.

(Values after doi:10.1101/137844.)
